The other results are listed elsewhere or left out.
Experiments:
Experiment in all cases: log2 fold change, soluble protein after heating vs DMSO (PISA); higher = thermal stabilisation; K562 lysate, 10 uM; active = over 0.2 and 3.5 SD of the protein, either way, in both replicates (recomputed)
alvocidib = compound: CN1CC[C@H](c2c(O)cc(O)c3c(=O)cc(-c4ccccc4Cl)oc23)[C@H](O)C1 [alvocidib]
In short: (§1)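 To prepare the extract, K562 pellets were dounce-homogenised in PBS pH 7.4 with 1 mM MgCl2, giving crude material at 1 mg/mL protein. This was treated with 10 μM compound for 30 min, then heated in aliquots for 3 min over 48°C-58°C before pooling and addition of NP-40 to 0.5% at 4°C. Centrifugation at 21,000xg for 90 min left soluble protein in the supernatant, which TMTpro 16plex LC-MS/MS quantified with equalised channel sums. Results are log-two fold changes in thermal stability compared with solvent controls, from duplicates.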

Chains of the proteins cited; added tags and fusions are not shown. Lines headed by an entry give the natural chain unless they say otherwise; changes in a name come on top.
UniProt P07902: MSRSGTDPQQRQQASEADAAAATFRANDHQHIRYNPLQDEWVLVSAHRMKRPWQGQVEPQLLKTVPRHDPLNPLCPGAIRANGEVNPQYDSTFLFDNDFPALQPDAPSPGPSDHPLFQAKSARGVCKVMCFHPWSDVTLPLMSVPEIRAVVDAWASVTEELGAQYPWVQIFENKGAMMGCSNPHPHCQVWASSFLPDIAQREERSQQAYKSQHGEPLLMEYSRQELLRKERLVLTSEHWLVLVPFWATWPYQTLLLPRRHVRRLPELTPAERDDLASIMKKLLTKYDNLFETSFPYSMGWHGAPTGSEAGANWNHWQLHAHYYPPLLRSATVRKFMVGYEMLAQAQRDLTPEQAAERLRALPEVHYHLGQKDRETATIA
UniProt Q5SZK8: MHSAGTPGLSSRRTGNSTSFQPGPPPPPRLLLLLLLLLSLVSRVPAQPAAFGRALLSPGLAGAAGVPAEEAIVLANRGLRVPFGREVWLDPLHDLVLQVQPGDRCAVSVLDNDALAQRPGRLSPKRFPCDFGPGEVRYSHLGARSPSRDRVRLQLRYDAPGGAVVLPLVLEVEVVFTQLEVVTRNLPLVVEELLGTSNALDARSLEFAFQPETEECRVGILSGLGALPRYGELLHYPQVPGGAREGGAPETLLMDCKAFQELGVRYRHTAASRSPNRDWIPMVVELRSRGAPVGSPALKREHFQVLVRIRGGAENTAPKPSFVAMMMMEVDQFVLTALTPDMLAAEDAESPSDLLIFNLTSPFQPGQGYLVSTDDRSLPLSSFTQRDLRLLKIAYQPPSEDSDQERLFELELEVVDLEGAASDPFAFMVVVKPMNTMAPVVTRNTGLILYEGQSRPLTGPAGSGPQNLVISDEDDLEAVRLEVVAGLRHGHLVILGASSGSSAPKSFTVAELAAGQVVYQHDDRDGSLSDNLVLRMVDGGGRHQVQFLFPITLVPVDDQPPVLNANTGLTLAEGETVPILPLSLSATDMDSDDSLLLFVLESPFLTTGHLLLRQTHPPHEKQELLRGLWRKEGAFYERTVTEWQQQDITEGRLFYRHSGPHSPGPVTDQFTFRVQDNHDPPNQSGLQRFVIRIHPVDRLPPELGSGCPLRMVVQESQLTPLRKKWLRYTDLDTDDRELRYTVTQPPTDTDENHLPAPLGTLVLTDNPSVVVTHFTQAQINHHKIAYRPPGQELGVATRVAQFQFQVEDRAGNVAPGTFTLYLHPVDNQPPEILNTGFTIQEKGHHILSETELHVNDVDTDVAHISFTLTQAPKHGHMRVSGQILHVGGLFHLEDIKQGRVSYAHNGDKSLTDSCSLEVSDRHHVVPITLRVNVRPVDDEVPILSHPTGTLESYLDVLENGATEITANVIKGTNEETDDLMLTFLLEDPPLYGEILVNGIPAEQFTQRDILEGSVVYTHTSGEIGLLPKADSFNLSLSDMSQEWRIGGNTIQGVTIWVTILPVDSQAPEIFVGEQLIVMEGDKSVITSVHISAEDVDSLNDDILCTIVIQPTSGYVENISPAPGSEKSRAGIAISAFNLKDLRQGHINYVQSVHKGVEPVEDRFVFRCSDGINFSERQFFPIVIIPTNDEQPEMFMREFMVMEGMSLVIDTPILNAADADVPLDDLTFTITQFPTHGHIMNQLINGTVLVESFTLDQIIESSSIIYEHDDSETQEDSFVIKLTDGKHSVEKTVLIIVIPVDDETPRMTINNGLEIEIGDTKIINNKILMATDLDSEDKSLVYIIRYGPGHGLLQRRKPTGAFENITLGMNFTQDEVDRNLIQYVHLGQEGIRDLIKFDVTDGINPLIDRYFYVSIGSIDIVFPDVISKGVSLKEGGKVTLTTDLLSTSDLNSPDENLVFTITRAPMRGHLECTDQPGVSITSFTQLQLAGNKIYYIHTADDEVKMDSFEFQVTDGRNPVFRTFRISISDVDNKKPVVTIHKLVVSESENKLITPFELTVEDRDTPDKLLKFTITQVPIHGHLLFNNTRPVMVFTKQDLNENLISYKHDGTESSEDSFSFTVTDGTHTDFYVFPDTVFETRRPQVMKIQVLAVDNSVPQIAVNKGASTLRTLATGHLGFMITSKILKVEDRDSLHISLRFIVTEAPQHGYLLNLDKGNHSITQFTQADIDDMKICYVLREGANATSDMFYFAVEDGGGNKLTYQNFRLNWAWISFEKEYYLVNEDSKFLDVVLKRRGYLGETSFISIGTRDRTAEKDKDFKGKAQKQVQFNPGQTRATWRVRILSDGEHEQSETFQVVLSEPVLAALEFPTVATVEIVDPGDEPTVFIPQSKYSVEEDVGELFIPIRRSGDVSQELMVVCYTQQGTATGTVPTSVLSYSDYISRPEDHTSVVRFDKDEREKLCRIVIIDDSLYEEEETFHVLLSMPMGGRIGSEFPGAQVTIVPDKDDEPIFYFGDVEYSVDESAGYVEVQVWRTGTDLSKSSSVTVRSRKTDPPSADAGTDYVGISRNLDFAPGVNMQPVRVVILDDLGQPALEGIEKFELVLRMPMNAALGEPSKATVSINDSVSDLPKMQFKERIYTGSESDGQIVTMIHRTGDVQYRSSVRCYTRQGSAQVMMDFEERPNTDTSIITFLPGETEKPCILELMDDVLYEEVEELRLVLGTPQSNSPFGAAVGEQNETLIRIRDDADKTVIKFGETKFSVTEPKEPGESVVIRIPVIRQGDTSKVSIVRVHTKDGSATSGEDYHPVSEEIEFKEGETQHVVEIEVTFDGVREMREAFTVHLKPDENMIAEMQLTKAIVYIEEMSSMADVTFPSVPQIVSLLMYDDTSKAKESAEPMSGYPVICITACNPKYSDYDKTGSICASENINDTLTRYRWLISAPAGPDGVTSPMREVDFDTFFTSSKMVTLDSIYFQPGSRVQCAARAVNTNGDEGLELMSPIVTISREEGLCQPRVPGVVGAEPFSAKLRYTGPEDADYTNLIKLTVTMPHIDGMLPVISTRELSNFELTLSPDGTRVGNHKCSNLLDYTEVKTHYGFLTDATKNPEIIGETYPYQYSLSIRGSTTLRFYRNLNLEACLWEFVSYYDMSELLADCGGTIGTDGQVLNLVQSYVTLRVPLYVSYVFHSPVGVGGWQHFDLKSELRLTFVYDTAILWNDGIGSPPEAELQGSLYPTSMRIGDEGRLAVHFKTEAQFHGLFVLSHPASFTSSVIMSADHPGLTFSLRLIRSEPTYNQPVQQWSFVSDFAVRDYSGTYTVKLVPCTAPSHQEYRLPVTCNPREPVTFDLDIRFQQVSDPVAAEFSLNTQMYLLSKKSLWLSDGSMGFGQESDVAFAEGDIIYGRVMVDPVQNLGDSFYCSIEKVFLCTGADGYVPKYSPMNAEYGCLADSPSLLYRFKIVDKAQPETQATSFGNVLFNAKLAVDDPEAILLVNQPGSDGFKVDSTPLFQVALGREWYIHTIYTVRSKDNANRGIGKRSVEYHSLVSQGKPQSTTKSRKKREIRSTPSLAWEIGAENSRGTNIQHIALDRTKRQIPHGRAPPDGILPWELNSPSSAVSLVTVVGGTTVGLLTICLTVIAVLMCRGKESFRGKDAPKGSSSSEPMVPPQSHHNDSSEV
UniProt O14772: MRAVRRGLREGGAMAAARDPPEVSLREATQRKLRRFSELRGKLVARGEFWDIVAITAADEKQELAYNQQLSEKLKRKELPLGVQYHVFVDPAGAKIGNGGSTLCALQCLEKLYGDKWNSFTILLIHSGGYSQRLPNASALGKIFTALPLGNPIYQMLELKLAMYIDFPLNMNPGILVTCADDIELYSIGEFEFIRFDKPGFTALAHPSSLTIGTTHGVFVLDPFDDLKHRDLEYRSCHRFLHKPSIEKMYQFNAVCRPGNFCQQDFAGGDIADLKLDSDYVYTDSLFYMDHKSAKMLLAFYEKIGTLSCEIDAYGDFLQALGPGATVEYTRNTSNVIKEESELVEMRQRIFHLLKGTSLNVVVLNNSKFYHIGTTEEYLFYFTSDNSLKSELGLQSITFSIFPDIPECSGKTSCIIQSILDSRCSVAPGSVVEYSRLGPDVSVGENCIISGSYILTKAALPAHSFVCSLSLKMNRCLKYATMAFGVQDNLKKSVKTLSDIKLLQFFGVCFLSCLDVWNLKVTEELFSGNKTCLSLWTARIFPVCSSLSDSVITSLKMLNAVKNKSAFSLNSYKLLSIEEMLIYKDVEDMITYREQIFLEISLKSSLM
UniProt P51116, whole entry, looked up: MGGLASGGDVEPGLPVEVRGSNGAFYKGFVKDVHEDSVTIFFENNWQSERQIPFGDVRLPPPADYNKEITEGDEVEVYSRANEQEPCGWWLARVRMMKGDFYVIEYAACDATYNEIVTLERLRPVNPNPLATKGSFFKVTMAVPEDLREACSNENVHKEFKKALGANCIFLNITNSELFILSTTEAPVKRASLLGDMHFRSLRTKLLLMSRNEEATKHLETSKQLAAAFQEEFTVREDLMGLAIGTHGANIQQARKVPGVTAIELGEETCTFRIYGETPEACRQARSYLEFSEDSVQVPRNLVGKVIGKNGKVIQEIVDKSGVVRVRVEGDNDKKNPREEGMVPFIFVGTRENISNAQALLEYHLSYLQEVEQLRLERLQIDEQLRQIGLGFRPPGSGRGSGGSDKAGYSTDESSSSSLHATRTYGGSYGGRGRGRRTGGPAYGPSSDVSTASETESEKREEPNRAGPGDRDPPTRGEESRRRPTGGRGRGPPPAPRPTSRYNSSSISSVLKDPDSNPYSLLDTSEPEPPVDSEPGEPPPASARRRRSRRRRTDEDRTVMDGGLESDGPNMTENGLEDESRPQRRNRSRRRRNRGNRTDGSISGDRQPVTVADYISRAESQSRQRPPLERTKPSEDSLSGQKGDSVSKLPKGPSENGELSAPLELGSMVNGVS
UniProt Q86SF2: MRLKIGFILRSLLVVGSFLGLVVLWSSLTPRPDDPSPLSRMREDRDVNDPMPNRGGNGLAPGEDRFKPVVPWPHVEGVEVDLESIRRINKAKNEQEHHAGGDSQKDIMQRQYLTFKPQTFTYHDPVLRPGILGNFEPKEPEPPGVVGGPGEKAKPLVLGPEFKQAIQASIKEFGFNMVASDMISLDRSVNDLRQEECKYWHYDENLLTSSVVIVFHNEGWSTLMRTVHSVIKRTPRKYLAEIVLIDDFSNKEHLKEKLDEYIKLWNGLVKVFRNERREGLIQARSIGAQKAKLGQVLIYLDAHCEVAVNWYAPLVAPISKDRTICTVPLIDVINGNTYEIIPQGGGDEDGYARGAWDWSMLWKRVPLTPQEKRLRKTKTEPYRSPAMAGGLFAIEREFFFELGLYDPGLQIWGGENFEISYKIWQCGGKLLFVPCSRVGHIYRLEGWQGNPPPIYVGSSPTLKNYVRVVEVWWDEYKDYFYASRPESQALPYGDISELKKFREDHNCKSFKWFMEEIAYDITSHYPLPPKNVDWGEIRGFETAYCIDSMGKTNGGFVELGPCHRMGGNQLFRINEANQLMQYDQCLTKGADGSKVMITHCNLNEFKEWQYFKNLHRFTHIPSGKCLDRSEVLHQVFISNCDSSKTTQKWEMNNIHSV
UniProt O43524: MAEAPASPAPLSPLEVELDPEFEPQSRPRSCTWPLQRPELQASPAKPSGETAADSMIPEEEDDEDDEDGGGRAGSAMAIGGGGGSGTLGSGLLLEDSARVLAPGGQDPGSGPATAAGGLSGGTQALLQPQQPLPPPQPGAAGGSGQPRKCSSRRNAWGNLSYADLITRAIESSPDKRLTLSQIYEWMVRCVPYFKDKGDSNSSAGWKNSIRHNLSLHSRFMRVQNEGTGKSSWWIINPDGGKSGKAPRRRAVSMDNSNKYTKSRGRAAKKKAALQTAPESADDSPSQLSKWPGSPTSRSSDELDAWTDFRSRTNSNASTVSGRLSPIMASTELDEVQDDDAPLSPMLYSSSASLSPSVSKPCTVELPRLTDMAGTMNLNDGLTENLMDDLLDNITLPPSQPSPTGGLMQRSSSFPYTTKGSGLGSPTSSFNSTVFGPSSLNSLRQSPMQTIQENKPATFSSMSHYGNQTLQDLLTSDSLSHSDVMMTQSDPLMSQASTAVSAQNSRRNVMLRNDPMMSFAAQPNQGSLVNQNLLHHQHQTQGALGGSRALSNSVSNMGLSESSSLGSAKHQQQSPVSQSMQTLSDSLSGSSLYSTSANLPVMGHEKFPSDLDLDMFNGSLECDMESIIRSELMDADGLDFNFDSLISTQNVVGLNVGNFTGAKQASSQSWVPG

Tubastatin A = compound: CN1CCc2c(c3ccccc3n2Cc2ccc(C(=O)NO)cc2)C1 [Tubastatin A]
In short: as §1

[1] = compound: CNC(=O)C1=CC=CC=C1NC2=NC(=NC=C2Cl)NC3=C(C=C(C=C3)N4CCOCC4)OC
In short: as §1

defactinib = compound: CNC(=O)c1ccc(Nc2ncc(C(F)(F)F)c(NCc3nccnc3N(C)S(C)(=O)=O)n2)cc1 [defactinib]
In short: as §1

[2] = compound: CNc1nc(-c2ccc3c(N)n[nH]c3c2)cc(N2C[C@@H](C(=O)NC3CCCCC3)CC[C@H]2C)n1
In short: as §1

encorafenib = compound: COC(=O)N[C@@H](C)CNc1nccc(-c2cn(C(C)C)nc2-c2cc(Cl)cc(NS(C)(=O)=O)c2F)n1 [encorafenib]
In short: as §1

[3] = compound: COC(=O)[C@H](CCSC)NC(=O)C1=C(C=C(C=C1)NC[C@H](CS)N)C2=CC=CC=C2
In short: as §1

alisertib = compound: COc1cc(Nc2ncc3c(n2)-c2ccc(Cl)cc2C(c2c(F)cccc2OC)=NC3)ccc1C(=O)O [alisertib]
In short: as §1

[4] = compound: COc1cc2nc(-c3cc(F)ccc3O)nc(N[C@@H]3CNC[C@H]3C(C)(C)O)c2cc1OC
In short: as §1

gefitinib = compound: COc1cc2ncnc(Nc3ccc(F)c(Cl)c3)c2cc1OCCCN1CCOCC1 [gefitinib]
In short: as §1

lapatinib = compound: CS(=O)(=O)CCNCc1ccc(-c2ccc3ncnc(Nc4ccc(OCc5cccc(F)c5)c(Cl)c4)c3c2)o1 [lapatinib]
In short: as §1

pictilisib = compound: CS(=O)(=O)N1CCN(Cc2cc3nc(-c4cccc5[nH]ncc45)nc(N4CCOCC4)c3s2)CC1 [pictilisib]
In short: as §1

crizotinib = compound: C[C@@H](Oc1cc(-c2cnn(C3CCNCC3)c2)cnc1N)c1c(Cl)ccc(F)c1Cl [crizotinib]
In short: as §1

[5] = compound: C[C@H](C1=CC=C(C=C1)C(=O)NC2=C3C=CNC3=NC=C2)N
In short: as §1

duvelisib = compound: C[C@H](Nc1ncnc2nc[nH]c12)c1cc2cccc(Cl)c2c(=O)n1-c1ccccc1 [duvelisib]
In short: as §1

gandotinib = compound: Cc1cc(Nc2cc(CN3CCOCC3)c3nc(C)c(Cc4ccc(Cl)cc4F)n3n2)n[nH]1 [gandotinib]
In short: as §1

tozasertib = compound: Cc1cc(Nc2cc(N3CCN(C)CC3)nc(Sc3ccc(NC(=O)C4CC4)cc3)n2)n[nH]1 [tozasertib]
In short: as §1

doramapimod = compound: Cc1ccc(-n2nc(C(C)(C)C)cc2NC(=O)Nc2ccc(OCCN3CCOCC3)c3ccccc23)cc1 [doramapimod]
In short: as §1

bafetinib = compound: Cc1ccc(NC(=O)c2ccc(CN3CC[C@H](N(C)C)C3)c(C(F)(F)F)c2)cc1Nc1nccc(-c2cncnc2)n1 [bafetinib]
In short: as §1

[6] = compound: Cc1cccc(CC(=O)N2CCc3c2ccc(-c2cn(C)c4ncnc(N)c24)c3F)n1
In short: as §1

Measured: log2 fold change

GALT (UniProt P07902)
inactive: alvocidib -0.024 | Tubastatin A 0.087 | [1] 0.012 | defactinib 0.103 | [2] 0.108 | encorafenib 0.001 | [3] 0.076 | alisertib -0.073 | [4] 0.038 | gefitinib 0.024 | lapatinib 0.009 | pictilisib -0.027 | crizotinib -0.006 | [5] -0.055 | duvelisib -0.056 | gandotinib 0.079 | tozasertib 0.003 | doramapimod 0.054 | bafetinib -0.054 | [6] 0.107

FREM2 (UniProt Q5SZK8)
inactive: alvocidib -0.114 | Tubastatin A 0.068 | [1] -0.034 | defactinib -0.005 | [2] -0.038 | encorafenib 0.031 | [3] -0.022 | alisertib 0.098 | [4] -0.013 | gefitinib 0.164 | lapatinib -0.077 | pictilisib 0.046 | crizotinib -0.095 | duvelisib 0.06 | gandotinib 0.172 | tozasertib 0.104 | doramapimod 0.07 | bafetinib -0.135 | [6] 0.218
active: [5] -0.318

FPGT (UniProt O14772)
active: [5] 0.319
inactive: alvocidib 0.031 | Tubastatin A -0.111 | [1] -0.011 | defactinib 0.008 | [2] -0.02 | encorafenib 0.011 | [3] 0.058 | alisertib 0.002 | [4] 0.002 | gefitinib 0.013 | lapatinib 0.005 | pictilisib 0.019 | crizotinib -0.077 | duvelisib 0.006 | gandotinib -0.085 | tozasertib 0.012 | doramapimod 0.054 | bafetinib -0.043 | [6] -0.012

FSCN1 (UniProt Q16658)
inactive: alvocidib 0.026 | Tubastatin A 0.019 | [1] -0.002 | defactinib 0.001 | [2] -0.066 | encorafenib -0.021 | [3] -0.053 | alisertib -0.011 | [4] -0.005 | gefitinib -0.005 | lapatinib 0.008 | pictilisib -0.004 | crizotinib 0.043 | [5] 0.082 | duvelisib 0.017 | gandotinib -0.044 | tozasertib 0.011 | doramapimod -0.02 | bafetinib 0.061 | [6] -0.086

Copied from the results shown (2 entries):
FPGT (UniProt O14772)
active: [5] 0.319
inactive: alvocidib 0.031 | Tubastatin A -0.111 | [1] -0.011 | defactinib 0.008 | [2] -0.02 | encorafenib 0.011 | [3] 0.058 | alisertib 0.002 | [4] 0.002 | gefitinib 0.013 | lapatinib 0.005 | pictilisib 0.019 | crizotinib -0.077 | duvelisib 0.006 | gandotinib -0.085 | tozasertib 0.012 | doramapimod 0.054 | bafetinib -0.043 | [6] -0.012

FSCN1 (UniProt Q16658)
inactive: alvocidib 0.026 | Tubastatin A 0.019 | [1] -0.002 | defactinib 0.001 | [2] -0.066 | encorafenib -0.021 | [3] -0.053 | alisertib -0.011 | [4] -0.005 | gefitinib -0.005 | lapatinib 0.008 | pictilisib -0.004 | crizotinib 0.043 | [5] 0.082 | duvelisib 0.017 | gandotinib -0.044 | tozasertib 0.011 | doramapimod -0.02 | bafetinib 0.061 | [6] -0.086

Next results

FXR2 (UniProt P51116)
inactive: alvocidib 0 | Tubastatin A -0.159 | [1] -0.083 | defactinib -0.117 | [2] -0.018 | encorafenib 0.06 | [3] 0.064 | alisertib 0.017 | [4] 0.013 | gefitinib 0.012 | lapatinib -0.002 | pictilisib -0.055 | crizotinib -0.017 | [5] -0.022 | duvelisib -0.016 | gandotinib -0.074 | tozasertib 0.009 | doramapimod 0.037 | bafetinib 0.002 | [6] 0.027

GABPA (UniProt Q06546)
inactive: alvocidib -0.044 | Tubastatin A -0.068 | [1] 0.009 | defactinib 0.025 | [2] 0.024 | encorafenib 0.019 | [3] 0.051 | alisertib 0.01 | [4] -0.003 | gefitinib -0.011 | lapatinib -0.012 | pictilisib -0.026 | crizotinib 0.018 | [5] -0.144 | duvelisib -0.022 | gandotinib 0.074 | tozasertib -0.011 | doramapimod 0.007 | bafetinib -0.016 | [6] 0.074

GALNT7 (UniProt Q86SF2)
inactive: alvocidib 0.019 | Tubastatin A 0.037 | [1] 0.011 | defactinib 0.023 | [2] 0.025 | encorafenib 0.007 | [3] -0.058 | alisertib -0.029 | [4] 0.001 | gefitinib -0.042 | lapatinib 0.006 | pictilisib -0.026 | crizotinib -0.012 | [5] 0.163 | duvelisib -0.011 | gandotinib -0.011 | tozasertib -0.006 | doramapimod -0.027 | bafetinib 0.034 | [6] -0.065

FOXO3 (UniProt O43524)
inactive: alvocidib -0.099 | Tubastatin A -0.04 | [1] -0.018 | defactinib -0.062 | [2] -0.002 | encorafenib -0.058 | [3] -0.121 | alisertib -0.024 | [4] 0.009 | gefitinib -0.414 | lapatinib -0.005 | pictilisib -0.002 | crizotinib -0.029 | [5] -0.01 | duvelisib 0.01 | gandotinib 0.054 | tozasertib 0.007 | doramapimod 0.01 | bafetinib -0.081 | [6] 0.054
